Laboratory results as given in paper PMC6235892.
No constants are given. Whether binding was seen depends on the method and setting. Binding seen in cells or lysates may run through a third protein. Some results given as binding are weak or reduced against the parent protein; the word gives no strength.

By UniProt entry, the sequences of proteins in these tests, tags left out.
UniProt P10415: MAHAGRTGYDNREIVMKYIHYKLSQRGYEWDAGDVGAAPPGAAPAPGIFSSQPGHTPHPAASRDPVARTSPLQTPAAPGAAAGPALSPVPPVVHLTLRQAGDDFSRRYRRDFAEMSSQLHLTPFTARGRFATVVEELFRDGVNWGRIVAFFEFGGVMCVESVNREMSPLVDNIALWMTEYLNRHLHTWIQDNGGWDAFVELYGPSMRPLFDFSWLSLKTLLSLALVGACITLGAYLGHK
UniProt Q15388: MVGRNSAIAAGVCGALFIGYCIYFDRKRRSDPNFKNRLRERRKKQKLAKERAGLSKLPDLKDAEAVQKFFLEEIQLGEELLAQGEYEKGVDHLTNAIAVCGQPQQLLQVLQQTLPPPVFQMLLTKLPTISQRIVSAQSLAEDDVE
UniProt Q3V3Q7: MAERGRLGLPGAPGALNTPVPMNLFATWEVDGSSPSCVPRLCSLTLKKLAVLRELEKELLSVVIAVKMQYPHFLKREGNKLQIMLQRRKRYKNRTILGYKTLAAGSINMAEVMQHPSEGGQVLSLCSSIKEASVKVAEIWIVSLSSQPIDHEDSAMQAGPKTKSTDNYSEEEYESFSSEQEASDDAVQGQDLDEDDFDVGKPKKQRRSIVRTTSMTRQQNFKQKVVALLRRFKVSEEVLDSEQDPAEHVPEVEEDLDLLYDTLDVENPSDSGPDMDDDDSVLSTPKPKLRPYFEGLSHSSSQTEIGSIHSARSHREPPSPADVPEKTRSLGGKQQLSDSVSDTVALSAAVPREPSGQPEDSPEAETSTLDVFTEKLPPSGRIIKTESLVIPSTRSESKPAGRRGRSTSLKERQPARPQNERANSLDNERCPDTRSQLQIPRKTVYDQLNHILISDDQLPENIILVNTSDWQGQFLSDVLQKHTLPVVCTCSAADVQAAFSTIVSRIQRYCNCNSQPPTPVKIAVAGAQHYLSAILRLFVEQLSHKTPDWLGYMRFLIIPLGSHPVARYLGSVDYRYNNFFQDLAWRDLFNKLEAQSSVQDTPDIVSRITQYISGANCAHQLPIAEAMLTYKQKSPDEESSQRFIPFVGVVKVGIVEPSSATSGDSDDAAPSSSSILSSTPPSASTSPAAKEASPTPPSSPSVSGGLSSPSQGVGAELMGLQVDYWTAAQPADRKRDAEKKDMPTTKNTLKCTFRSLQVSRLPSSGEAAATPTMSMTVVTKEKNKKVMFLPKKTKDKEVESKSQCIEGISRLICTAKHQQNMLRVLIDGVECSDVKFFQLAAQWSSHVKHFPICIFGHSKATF
UniProt P04150: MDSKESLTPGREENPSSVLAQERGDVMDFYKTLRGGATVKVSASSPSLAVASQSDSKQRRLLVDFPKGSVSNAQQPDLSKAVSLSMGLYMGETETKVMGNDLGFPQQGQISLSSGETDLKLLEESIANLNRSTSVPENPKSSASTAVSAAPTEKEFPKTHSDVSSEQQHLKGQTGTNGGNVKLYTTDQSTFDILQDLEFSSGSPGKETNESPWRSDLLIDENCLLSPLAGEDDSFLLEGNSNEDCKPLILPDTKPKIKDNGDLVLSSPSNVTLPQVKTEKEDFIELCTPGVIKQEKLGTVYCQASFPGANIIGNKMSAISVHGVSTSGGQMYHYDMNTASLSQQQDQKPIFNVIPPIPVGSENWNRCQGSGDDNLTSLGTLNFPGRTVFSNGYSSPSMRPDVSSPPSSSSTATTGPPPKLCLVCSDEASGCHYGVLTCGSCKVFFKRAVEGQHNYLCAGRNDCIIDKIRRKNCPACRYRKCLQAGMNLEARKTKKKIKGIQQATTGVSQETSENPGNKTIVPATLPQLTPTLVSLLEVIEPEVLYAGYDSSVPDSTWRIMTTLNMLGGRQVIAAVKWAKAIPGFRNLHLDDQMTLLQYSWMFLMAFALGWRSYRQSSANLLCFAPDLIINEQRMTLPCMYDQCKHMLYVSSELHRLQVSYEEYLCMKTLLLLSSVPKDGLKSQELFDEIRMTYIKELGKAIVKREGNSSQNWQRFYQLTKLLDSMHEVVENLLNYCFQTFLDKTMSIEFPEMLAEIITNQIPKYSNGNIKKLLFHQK

How the values were obtained:
[1] = biological target: Bcl-2 (human (endogenous in SH-SY5Y)) (UniProt P10415); assay: co-IP; total lysates of SH-SY5Y cells (300 ug) with 10 ug primary antibody on magnetic beads, overnight at 4 °C; endogenous proteins; cells treated with or without cortisol (1 uM), in some panels bcl-2 siRNA before
[2] = biological target: TOMM20 (human (endogenous in SH-SY5Y)) (UniProt Q15388); assay: as above
[3] = biological target: phosphofurin acidic cluster sorting protein 2 (PACS2), mouse (mouse (endogenous in hippocampus)) (UniProt Q3V3Q7); assay: co-IP; lysed hippocampus of male ICR mice exposed to vehicle or corticosterone (10 mg/kg), in one panel rapamycin (8 mg/kg) before; endogenous proteins

Molecule	binding [1]	binding [2]	binding [3]
TOMM20 (from UniProt Q15388 1-145)	binds		
glucocorticoid receptor (GR) (from UniProt P04150 1-777)	binds	binds	
mfn2, mouse (protein, UniProt Q80U63 1-757) MSLLFSRCNSIVTVKKDKRHMAEVNASPLKHFVTAKKKINGIFEQLGAYIQESASFLEDTHRNTELDPVTTEEQVLDVKGYLSKVRGISEVLARRHMKVAFFGRTSNGKSTVINAMLWDKVLPSGIGHTTNCFLRVGGTDGHEAFLLTEGSEEKKSVKTVNQLAHALHQDEQLHAGSMVSVMWPNSKCPLLKDDLVLMDSPGIDVTTELDSWIDKFCLDADVFVLVANSESTLMQTEKQFFHKVSERLSRPNIFILNNRWDASASEPEYMEEVRRQHMERCTSFLVDELGVVDRAQAGDRIFFVSAKEVLSARVQKAQGMPEGGGALAEGFQVRMFEFQNFERQFEECISQSAVKTKFEQHTVRAKQIAEAVRLIMDSLHIAAQEQRVYCLEMREERQDRLRFIDKQLELLAQDYKLRIKQITEEVERQVSTAMAEEIRRLSVLVDEYQMDFHPSPVVLKVYKNELHRHIEEGLGRNLSDRCSTAIASSLQTMQQDMIDGLKPLLPVSMRNQIDMLVPRQCFSLSYDLNCDKLCADFQEDIEFHFSLGWTMLVNRFLGPKNSRRALLGYSDQVQRPLPLTPANPSMPPLPQSSLTQEELMVSMVTGLASLTSRTSMGILVVGGVVWKAVGWRLIALSFGLYGLLYVYERLTWTTKAKERAFKRQFVEYASEKLQLIISYTGSNCSHQVQQELSGTFAHLCQQVDITRDNLEQEIAAMNKKVEALDSLQSRAKLLRNKAGWLDSELNMFTHQYLQPSR			binds
